We go through one molecule from publication PMC6933351.

Results are given in words; binding and its absence hold for the method and conditions named. Binding seen in cells or lysates may run through a third protein. Some binding calls cover weakened binding; strength is not graded here.

This test addresses T1, Endogenous SIRT1 (mouse (endogenous in MCFs)) (UniProt Q923E4).
T1 sequence: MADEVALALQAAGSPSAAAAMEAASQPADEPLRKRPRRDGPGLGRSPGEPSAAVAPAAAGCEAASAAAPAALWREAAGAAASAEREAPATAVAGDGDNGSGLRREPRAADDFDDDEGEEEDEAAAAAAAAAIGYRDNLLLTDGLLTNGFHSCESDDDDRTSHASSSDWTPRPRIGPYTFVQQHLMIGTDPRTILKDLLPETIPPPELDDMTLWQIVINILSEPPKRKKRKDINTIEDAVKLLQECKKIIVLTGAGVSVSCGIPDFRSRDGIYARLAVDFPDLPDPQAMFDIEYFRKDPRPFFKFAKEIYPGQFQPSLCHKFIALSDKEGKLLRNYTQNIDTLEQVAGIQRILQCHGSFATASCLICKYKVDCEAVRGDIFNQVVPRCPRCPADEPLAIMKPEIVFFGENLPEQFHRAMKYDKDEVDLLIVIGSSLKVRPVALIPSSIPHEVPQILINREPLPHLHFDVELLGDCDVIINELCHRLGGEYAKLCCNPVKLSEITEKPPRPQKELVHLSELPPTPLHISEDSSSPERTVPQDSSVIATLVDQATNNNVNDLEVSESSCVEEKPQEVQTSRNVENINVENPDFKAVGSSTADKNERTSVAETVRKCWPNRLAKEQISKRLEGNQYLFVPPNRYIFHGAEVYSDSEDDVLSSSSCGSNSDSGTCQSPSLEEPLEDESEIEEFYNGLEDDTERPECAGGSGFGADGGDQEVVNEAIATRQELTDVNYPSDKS
Put plainly: co-IP; endogenous proteins in MCFs, precipitated with a SIRT1 antibody, blotted for TRPC3; with or without Hcy stimulation.

B1: Endogenous TRPC3 (protein, UniProt Q9QZC1 1-910)
chain: MSTKVKKCREPARVTLPAPEEEEDGEAEGGESQRRRRGWRGVNGGLEPPCPRAPPSPGPDASSEGSPSRWRTAGMRDKGRRQAVRGPAFMFGARGPSLTAEEERFLDAAEYGNIPVVRKMLEESRTLNVNCVDYMGQNALQLAVGNEHLEVTELLLKKENLARIGDALLLAISKGYVRIVEAILGHPGFAASRRLTLSPCEQELRDDDFYAYDEDGTRFSPDITPIILAAHCHKYEVVHLLLLKGARIERPHDYFCRCSDCAEKQRLDAFSHSRSRINAYKGLASPAYLSLSSEDPVLTALELSNELAKLANIEKEFKNDYRKLSMQCKDFVVGVLDLCRDSEEVEAILNGDLESAEPLERHGHKASLSRVKLAIKYEVKKFVAHPNCQQQLLTIWYENLSGLREQTIAIKCLVVLVVALGLPFLAIGYWIAPCSRLGKILRSPFMKFVAHAASFIIFLGLLVFNASDRFEGITTLPNITVIDYPKQIFRVKTTQFTWTEMLIMVWVLGMMWSECKELWLEGPREYIVQLWNVLDFGMLSIFIAAFTARFLAFLQATKAQQYVDSHVQESDLSEVTLPPEVQYFTYARDKWLPSDPQIISEGLYAIAVVLSFSRIAYILPANESFGPLQISLGRTVKDIFKFMVLFIMVFLAFMIGMFILYSYYLGAKVNPAFTTVEESFKTLFWSIFGLSEVTSVVLKYDHKFIENIGYVLYGIYNVTMVVVLLNMLIAMINSSYQEIEDDSDVEWKFARSKLWLSYFDDGKTLPPPFSLVPSPKSFVYFIMRITNFSKCRRRRLQKDLELGMGNSKSRLNLFTQSNSRVFESHSFNSILNQPTRYQQIMKRLIKRYVLKAQVDKENDEVNEGELKEIKQDISSLRYELLEDKSQATEELAILIHKLSEKLNPSVLRCE
Regarding B1, the binding entry was “binds”.
